{"source": "PubChem BioAssay AID488966", "about": "(Southern Research Specialized Biocontainment Screening …, 2010)", "note": "About 55 (0.02%) of roughly 340,000 compounds were called active. This list was built around the results that the source calls inconclusive (neither active nor inactive); the mix of calls is not that of the screen.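 Rule for the calls: active = phage lysis inhibition, versus mean bacterial control, above a set limit; inconclusive = no clear call, values can overlap the other calls; inactive = the rest.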"}
{"experiment": "protection from phage-mediated lysis, alamar blue read-out – E. coli UTI89, K1F phage, bacterial capsule biogenesis inhibitors (AID 488966);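 note: capsule biogenesis inhibitors block K1F phage lysis so surviving cells raise fluorescence; higher fluorescence means more inhibition of phage lysis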", "settings": "2 h; inhibition: at 100 µM, stronger effect = higher value unless noted; series mostly up to 300 µM"}
{"smiles": "Cc1cc(N2C(=O)C(O)=C(C(=O)c3cc4ccccc4o3)C2c2cccc(Br)c2)no1", "note": "(configuration not stated)", "inhibition": "inconclusive: 24.6%"}
{"smiles": "COc1cc(/C=C2\\C(=N)N3N=C(S(C)(=O)=O)SC3=NC2=O)ccc1OC(=O)c1cccs1", "inhibition": "inconclusive: 108%"}
